Measurements taken from article PMC11077381.
No constants are given. Whether binding was seen depends on the method and setting. In cells and extracts the contact can be indirect. Some entries that bind do so weakly or less than the wild type.

The chains behind the UniProt entries cited, without tags or fusion partners.
UniProt O00429: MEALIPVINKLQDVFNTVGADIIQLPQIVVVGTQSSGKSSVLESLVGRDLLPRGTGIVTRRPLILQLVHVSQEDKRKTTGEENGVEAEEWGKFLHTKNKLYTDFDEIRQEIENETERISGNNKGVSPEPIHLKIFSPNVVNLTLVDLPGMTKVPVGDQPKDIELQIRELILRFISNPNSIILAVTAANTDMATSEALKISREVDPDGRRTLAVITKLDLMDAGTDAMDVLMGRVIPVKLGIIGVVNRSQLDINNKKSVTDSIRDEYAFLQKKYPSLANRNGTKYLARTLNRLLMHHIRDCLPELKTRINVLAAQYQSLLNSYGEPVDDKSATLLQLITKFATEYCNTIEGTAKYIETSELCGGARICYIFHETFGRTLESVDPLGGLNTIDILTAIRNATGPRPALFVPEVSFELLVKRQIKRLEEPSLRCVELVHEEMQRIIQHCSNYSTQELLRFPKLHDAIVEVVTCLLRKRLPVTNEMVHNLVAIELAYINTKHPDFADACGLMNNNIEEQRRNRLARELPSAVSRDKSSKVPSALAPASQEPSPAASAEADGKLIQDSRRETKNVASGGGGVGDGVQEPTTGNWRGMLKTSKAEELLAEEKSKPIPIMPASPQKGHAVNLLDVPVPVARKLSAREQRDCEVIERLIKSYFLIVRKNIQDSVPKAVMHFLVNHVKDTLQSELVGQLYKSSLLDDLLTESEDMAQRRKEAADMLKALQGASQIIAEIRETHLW
UniProt Q8K1M6: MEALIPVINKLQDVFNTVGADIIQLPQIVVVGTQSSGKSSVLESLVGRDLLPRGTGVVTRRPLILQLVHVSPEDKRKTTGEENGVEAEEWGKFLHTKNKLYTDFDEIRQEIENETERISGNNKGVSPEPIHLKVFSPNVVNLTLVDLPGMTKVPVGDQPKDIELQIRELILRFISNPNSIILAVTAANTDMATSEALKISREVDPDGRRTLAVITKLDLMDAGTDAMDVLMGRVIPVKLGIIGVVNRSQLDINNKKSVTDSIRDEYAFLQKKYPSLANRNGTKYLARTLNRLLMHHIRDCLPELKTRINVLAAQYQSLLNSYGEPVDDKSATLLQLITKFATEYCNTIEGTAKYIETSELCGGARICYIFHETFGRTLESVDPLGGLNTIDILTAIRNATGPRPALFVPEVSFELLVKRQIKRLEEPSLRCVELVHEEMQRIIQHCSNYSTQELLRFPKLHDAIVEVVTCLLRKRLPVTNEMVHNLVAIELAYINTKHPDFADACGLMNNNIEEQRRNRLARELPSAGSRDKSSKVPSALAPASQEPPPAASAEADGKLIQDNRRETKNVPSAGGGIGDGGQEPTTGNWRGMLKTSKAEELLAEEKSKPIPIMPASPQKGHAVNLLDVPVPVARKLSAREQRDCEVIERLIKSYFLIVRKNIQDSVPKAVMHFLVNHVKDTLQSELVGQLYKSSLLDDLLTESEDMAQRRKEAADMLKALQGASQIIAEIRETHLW
UniProt Q13546: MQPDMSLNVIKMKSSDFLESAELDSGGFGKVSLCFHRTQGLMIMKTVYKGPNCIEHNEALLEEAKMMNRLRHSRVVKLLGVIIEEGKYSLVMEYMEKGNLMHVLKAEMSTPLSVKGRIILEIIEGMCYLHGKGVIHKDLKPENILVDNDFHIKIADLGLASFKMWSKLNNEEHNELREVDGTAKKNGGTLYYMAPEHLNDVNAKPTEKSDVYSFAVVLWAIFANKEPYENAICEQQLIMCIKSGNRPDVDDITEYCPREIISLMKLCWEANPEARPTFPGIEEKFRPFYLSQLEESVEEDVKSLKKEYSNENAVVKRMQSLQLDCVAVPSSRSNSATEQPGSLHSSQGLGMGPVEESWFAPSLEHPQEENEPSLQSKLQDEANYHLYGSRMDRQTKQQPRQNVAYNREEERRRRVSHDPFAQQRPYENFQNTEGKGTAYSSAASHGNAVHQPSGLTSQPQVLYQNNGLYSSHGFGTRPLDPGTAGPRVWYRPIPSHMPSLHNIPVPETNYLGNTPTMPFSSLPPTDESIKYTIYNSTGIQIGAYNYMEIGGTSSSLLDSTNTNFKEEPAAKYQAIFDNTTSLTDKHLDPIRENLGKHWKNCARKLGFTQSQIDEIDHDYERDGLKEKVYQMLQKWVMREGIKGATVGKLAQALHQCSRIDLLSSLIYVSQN
UniProt Q9DCC8: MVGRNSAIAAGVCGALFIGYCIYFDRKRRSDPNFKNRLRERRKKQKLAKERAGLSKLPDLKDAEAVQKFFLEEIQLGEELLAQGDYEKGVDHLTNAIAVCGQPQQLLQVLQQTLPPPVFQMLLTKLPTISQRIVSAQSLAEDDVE
UniProt Q13158: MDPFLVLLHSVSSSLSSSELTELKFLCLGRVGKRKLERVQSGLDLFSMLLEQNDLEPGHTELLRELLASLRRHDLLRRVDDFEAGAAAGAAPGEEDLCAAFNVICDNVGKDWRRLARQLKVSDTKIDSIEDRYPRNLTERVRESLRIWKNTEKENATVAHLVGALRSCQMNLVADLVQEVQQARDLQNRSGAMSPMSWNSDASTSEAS
UniProt Q14790: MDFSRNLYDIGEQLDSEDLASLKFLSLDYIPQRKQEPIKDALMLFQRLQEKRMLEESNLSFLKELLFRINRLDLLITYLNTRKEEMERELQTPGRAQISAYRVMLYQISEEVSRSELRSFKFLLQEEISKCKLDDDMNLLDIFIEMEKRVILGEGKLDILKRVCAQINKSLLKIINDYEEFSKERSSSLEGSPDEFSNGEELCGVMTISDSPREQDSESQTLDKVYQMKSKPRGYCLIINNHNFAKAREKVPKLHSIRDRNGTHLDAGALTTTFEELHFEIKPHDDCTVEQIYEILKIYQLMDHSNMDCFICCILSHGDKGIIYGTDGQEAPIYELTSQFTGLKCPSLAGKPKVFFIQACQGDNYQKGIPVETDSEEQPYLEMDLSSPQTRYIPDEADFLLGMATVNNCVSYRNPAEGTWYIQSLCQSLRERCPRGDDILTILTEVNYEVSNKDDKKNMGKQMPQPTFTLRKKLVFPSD
UniProt O89110: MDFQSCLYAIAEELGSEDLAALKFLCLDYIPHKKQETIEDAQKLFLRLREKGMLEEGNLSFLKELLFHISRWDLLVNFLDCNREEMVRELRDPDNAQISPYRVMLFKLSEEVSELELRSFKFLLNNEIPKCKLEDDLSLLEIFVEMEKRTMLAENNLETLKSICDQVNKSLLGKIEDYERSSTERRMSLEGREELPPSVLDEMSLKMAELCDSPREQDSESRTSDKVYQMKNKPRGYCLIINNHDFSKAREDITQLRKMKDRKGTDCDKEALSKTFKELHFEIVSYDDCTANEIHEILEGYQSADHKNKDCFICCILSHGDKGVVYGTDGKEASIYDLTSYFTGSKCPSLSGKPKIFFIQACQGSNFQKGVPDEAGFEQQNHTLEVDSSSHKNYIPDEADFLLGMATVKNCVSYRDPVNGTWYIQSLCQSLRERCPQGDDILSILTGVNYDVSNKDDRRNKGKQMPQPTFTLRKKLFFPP
UniProt Q8BGV8: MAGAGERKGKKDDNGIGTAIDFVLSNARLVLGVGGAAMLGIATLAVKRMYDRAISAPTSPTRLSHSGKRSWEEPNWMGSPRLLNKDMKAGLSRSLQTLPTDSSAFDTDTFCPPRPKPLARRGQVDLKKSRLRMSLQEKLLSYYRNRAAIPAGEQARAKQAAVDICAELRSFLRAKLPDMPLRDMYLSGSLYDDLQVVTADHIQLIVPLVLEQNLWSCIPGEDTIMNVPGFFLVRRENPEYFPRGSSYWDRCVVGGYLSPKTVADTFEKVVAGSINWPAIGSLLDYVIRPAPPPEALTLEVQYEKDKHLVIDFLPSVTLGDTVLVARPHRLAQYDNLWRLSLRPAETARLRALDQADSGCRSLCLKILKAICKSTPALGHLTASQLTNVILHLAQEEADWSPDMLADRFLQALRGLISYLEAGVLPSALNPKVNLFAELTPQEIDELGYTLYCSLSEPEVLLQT

Legend:
[1] = molecular target: dynamin-related protein 1 (Drp1), human (human (endogenous in GES-1)) (UniProt O00429); assay: co-IP; endogenous proteins in GES-1 cell lysates; cells transfected with vector or shFADD and treated with vehicle or TNF-α (80 ng/ml, 8 h); Pierce Coimmunoprecipitation Kit, western blotting
[2] = molecular target: T1, receptor-interacting serine/threonine-protein kinase 1 (RIPK1), mouse (mouse (endogenous in primary gastric epithelial cells)) (UniProt Q60855); assay: co-IP; endogenous proteins in lysates of primary gastric epithelial cells from SO mice and mice with PVL (some treated with IFX or Nec-1); Pierce Coimmunoprecipitation Kit, antibody overnight at 4 °C, G/A agarose beads 3 h at room temperature, western blotting
T1 sequence: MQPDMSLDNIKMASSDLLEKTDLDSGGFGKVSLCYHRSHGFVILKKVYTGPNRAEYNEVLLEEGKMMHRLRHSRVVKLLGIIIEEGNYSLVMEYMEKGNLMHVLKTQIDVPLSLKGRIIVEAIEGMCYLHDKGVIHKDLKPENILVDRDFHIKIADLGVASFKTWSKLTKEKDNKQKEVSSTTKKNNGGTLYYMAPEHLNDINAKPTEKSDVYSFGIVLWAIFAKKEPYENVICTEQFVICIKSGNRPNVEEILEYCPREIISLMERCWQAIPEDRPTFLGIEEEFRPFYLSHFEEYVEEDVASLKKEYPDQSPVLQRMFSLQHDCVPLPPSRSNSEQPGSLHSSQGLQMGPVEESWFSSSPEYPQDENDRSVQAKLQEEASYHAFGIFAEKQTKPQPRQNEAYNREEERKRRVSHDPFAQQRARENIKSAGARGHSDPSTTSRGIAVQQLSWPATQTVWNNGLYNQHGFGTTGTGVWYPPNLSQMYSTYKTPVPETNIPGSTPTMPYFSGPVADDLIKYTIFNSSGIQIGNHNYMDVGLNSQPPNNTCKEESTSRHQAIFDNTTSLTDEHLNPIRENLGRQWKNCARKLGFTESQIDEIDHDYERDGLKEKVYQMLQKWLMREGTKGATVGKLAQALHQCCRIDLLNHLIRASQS

[3] = molecular target: dynamin-related protein 1 (Drp1), mouse (mouse (endogenous in primary gastric epithelial cells)) (UniProt Q8K1M6); assay: as above
[4] = molecular target: receptor-interacting serine/threonine-protein kinase 1 (RIPK1), human (human (endogenous in GES-1)) (UniProt Q13546); assay: co-IP; endogenous proteins in GES-1 cell lysates; cells transfected with vector or shFADD and treated with vehicle or TNF-α (80 ng/ml, 8 h); Pierce Coimmunoprecipitation Kit, western blotting
[5] = molecular target: dynamin-related protein 1 (Drp1), mouse (mouse (endogenous in primary gastric epithelial cells)) (UniProt Q8K1M6); assay: co-IP; endogenous proteins in isolated mitochondrial fractions of primary epithelial cells from SO mice and mice with PVL; anti-Drp1 or anti-Fis1 antibody, western blotting
[6] = molecular target: TOMM20, mouse (mouse (endogenous in primary gastric epithelial cells)) (UniProt Q9DCC8); assay: co-IP; endogenous proteins in lysates of primary gastric epithelial cells from SO mice and mice with PVL (some treated with IFX or Nec-1); Pierce Coimmunoprecipitation Kit, antibody overnight at 4 °C, G/A agarose beads 3 h at room temperature, western blotting

For “Fas-associated protein with death domain (FADD), human (from UniProt Q13158 1-208)”, which binding [1] is on record?
Its binding is “binds”.

For “caspase-8, human (from UniProt Q14790 1-479)”, which binding [1] is on record?
The binding was “binds”.

“caspase-8, mouse (from UniProt O89110 1-480)” was tested. Which binding [2] did it give?
Its binding is “binds”.

And the binding [3]?
The binding was “binds”.

For “dynamin-related protein 1 (Drp1), human (from UniProt O00429 1-736)”, which binding [4] is on record?
Its binding is “binds”.

How did the binding [2] turn out when “dynamin-related protein 1 (Drp1), mouse (from UniProt Q8K1M6 1-736)” was run?
The binding was “binds”.

Which binding [5] does the source give for “mitochondrial dynamics protein 51 (Mid51), mouse (from UniProt Q8BGV8 1-463)” here?
Its binding is “binds”.

B1: fission protein 1 (Fis1), mouse (protein, UniProt Q9CQ92 1-152)
chain: MEAVLNELVSVEDLKNFERKFQSEQAAGSVSKSTQFEYAWCLVRSKYNEDIRRGIVLLEELLPKGSKEEQRDYVFYLAVGNYRLKEYEKALKYVRGLLQTEPQNNQAKELERLIDKAMKKDGLVGMAIVGGMALGVAGLAGLIGLAVSKSKS
Which binding [5] does the source give for B1 here?
Its binding is “binds”.

What about the binding [3] of the same molecule?
The binding was “binds”.

B2: mitochondrial fission factor (Mff), mouse (protein, UniProt Q6PCP5 1-291)
chain: MAEISRIQYEMEYTEGISQRMRVPEKLKVAPPNADLEQEFQDGVPNASVIMQVPERIVVTGNNEDISFSRPADLDLIQSTPFKPLALKTPPRVLTLSERPLDFLDLERPLPTPQSEESRAVGRLKRERSMSENAVRQNGQLVRNDSIVTPSPPQARVCPPHMLPEDGANLSSARGILSLIQSSTRRAYQQILDVLDENRRPVLRGGSAAATSNPHHDNVRYGISNLDAAIEGASDDMTVVDAASLRRQIIKLNRRLQLLEEENKERAKREMVMYSITVAFWLLNSWLWFRR
With B2 as the molecule, how does the binding [5] read?
The binding was “binds”.

B3: NADPH oxidase 2 (NOX2), mouse (protein, UniProt Q61093 1-570)
chain: MGNWAVNEGLSIFVILVWLGLNVFLFINYYKVYDDGPKYNYTRKLLGSALALARAPAACLNFNCMLILLPVCRNLLSFLRGSSACCSTRIRRQLDRNLTFHKMVAWMIALHTAIHTIAHLFNVEWCVNARVGISDRYSIALSDIGDNENEEYLNFAREKIKNPEGGLYVAVTRLAGITGIVITLCLILIITSSTKTIRRSYFEVFWYTHHLFVIFFIGLAIHGAERIVRGQTAESLEEHNLDICADKIEEWGKIKECPVPKFAGNPPMTWKWIVGPMFLYLCERLVRFWRSQQKVVITKVVTHPFKTIELQMKKKGFKMEVGQYIFVKCPKVSKLEWHPFTLTSAPEEDFFSIHIRIVGDWTEGLFNACGCDKQEFQDAWKLPKIAVDGPFGTASEDVFSYEVVMLVGAGIGVTPFASILKSVWYKYCDNATSLKLKKIYFYWLCRDTHAFEWFADLLQLLETQMQERNNANFLSYNIYLTGWDESQANHFAVHHDEEKDVITGLKQKTLYGRPNWDNEFKTIASEHPNTTIGVFLCGPEALAETLSKQSISNSESGPRGVHFIFNKENF
For B3, which binding [6] is on record?
Its binding is “binds”.

B4: mitochondrial dynamics protein 49 (Mid49), mouse (protein, UniProt Q5NCS9 1-454)
chain: MAEFSQKQRKQSGSEGLGSVVDFLLANARLVLGVGGAAVLGIATLAVKRLIDRATSPPDEDDTKGDSWKELSLLRATSPQKPQPPPAAFSQPLATGSPSPSVPVEPTPIHSPTTPKFSTIAPLCLTFQERLLAFERKHVITPEAHVTLAKQLAGDIALELQAYLRSKFPELPFGALVPGGPLYDGLQAGTAEHVRLLAPLELEPGLWSLVPGVDTVAREPRCWAVRRTQLEFHPRGCSPWDRFLVGGYLSSRVLLELLRKALSASVNWPAIGSLLGCLIWPDVASEELLLKVQHECLEFTLAVLMVVPGASTDDRLLLAWPLEGLASNLWLQDLYPVETARLRALDDQDAGTRRRLLLLLCGICRGHPALVRLGWSHLTQVVLHLGEEEVAWTEEALGERFLQALEFLVGSLEQASLPCHFNPSVNLLGNFREEEIDDIGYVLYSGLQVPESLF
B4 was tested. Which binding [5] did it give?
The binding was “binds”.

B5: Fas-associated protein with death domain (FADD), mouse (protein, UniProt Q61160 1-205)
chain: MDPFLVLLHSLSGSLSGNDLMELKFLCRERVSKRKLERVQSGLDLFTVLLEQNDLERGHTGLLRELLASLRRHDLLQRLDDFEAGTATAAPPGEADLQVAFDIVCDNVGRDWKRLARELKVSEAKMDGIEEKYPRSLSERVRESLKVWKNAEKKNASVAGLVKALRTCRLNLVADLVEEAQESVSKSENMSPVLRDSTVSSSETP
Which results are given for B5?
binding [2]: binds; binding [3]: binds
